Measurements reported in patent US20260274833A1 (NiKang Therapeutics, Inc., priority 2022, published 2026).

Biological target: CDK2 (Homo sapiens, UniProt P24941)
Assay: Phospho-RB measurement in OVCAR3 cells (HTRF phospho-RB cellular kit)
Conditions: read-out: CDK2 IC50, inhibition of RB phosphorylation at S807/811 (HTRF, TR-FRET ratio 665/620), 24 h compound treatment, 0.3 to 10,000 nM
Method: Biological Example 1: Phospho-RB Measurement in OVCAR3 Cells
The ability of compounds of Formula (I) to inhibit CDK2 was determined in OVCAR3 cells by measuring inhibition of phosphorylation of RB protein at S780 and S807/811. Phosphorylation of RB protein at S807/811 were measured using HTRF phospho-RB cellular kits (Cat #64RBS807PEG) from Cisbio.
On Day 1, OVCAR3 cells were seeded into 96-well tissue-culture treated plates at 20,000 cells/well in 200 μL and incubated overnight at 37° C. in CO2 atmosphere. On Day 2, the cells were treated with test compounds at concentrations from 0.3 to 10,000 nM using HP D300 digital dispenser. Twenty-four hours after compound treatment, cell culture media was removed by flicking the plate and tapping the plate against clean paper towel. Immediately 30 μL 1× lysis buffer was supplemented from the kit and the plate was incubated at room temperature on shaker for 30 min. After homogenization by pipetting up and down, 8 μL cell lysate from 96-well cell culture plate was transferred to 384-well small volume white detection plate. […]
Detection plates were incubated for 4 h at room temperature and read on ClarioStar (BMG Labtech) in TR-FRET mode ([…]). […] Half maximal inhibition concentration (IC50) values are calculated with a four-parameter logistic fit using GraphPad Prism (version 8; La Jolla, CA).

Q: O=S1(=O)CC2(CC(Nc3nccc(-c4sc(N5C6CCC5CN(CC(F)(F)F)C6)nc4-c4cccc(NS(=O)(=O)N5CCc6ccc(Cl)cc65)c4F)n3)C2)C1 was tested. Which IC50 did it give?
A: 222 nM

The match of structure and compound is tentative.
